# Experimental data reported in the supplement of paper PMC12819154, “High-throughput peptide-centric local stability assay extends protein–ligand identification to membrane proteins, tissues and bacteria” (Nature Structural & Molecular Biology, 2025).
# Amino acid sequences for entries named in this document (tags omitted). A change or cut given only in a name is not applied to a line headed by its entry.
# UniProt Q15013: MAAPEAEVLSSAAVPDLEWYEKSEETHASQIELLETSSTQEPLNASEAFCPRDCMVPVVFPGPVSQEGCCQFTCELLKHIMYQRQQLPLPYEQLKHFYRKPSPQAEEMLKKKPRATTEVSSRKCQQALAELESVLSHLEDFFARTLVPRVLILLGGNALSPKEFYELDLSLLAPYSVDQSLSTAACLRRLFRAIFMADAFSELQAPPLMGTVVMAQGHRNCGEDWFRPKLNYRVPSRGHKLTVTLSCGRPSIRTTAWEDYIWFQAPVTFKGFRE
# UniProt Q15650: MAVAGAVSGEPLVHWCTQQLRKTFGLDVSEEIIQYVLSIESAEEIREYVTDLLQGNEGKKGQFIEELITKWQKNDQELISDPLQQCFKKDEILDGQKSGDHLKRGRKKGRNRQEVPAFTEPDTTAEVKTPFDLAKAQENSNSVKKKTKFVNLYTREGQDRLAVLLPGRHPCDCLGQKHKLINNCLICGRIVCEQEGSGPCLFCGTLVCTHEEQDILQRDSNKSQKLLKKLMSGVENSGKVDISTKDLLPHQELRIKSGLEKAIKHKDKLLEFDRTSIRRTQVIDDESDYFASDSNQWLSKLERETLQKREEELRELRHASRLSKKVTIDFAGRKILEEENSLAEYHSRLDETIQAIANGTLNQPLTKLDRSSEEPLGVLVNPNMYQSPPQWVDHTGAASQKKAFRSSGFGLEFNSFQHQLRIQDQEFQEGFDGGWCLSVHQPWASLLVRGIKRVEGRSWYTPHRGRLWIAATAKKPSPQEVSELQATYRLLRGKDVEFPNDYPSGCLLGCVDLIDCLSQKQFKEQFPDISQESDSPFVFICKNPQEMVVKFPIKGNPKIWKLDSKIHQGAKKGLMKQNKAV
# UniProt Q15014, whole entry: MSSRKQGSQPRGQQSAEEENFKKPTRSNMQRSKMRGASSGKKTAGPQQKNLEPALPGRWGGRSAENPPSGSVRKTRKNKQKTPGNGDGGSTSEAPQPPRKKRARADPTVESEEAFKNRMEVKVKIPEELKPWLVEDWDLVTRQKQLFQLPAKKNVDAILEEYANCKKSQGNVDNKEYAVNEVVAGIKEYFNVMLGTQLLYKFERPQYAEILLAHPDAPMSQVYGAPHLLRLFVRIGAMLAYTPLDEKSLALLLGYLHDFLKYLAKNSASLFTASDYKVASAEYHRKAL
# UniProt Q15027: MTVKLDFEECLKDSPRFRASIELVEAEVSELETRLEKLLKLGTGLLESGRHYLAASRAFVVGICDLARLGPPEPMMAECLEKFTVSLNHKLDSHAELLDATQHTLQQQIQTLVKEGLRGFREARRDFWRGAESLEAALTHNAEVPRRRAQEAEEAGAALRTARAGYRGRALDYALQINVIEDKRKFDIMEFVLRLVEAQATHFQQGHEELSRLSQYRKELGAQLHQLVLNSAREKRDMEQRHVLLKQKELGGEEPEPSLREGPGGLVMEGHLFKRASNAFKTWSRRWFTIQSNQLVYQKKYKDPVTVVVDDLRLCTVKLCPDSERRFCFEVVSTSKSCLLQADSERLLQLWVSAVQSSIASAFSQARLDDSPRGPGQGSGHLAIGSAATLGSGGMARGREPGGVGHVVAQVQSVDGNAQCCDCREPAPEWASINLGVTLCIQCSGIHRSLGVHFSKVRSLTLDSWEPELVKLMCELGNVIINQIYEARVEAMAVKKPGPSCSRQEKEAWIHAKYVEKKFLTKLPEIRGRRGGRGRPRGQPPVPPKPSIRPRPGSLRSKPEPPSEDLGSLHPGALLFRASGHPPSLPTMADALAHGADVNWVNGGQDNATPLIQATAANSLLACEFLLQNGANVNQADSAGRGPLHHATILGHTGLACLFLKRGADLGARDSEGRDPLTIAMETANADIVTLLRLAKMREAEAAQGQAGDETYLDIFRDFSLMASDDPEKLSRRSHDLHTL
# UniProt Q15418, whole entry: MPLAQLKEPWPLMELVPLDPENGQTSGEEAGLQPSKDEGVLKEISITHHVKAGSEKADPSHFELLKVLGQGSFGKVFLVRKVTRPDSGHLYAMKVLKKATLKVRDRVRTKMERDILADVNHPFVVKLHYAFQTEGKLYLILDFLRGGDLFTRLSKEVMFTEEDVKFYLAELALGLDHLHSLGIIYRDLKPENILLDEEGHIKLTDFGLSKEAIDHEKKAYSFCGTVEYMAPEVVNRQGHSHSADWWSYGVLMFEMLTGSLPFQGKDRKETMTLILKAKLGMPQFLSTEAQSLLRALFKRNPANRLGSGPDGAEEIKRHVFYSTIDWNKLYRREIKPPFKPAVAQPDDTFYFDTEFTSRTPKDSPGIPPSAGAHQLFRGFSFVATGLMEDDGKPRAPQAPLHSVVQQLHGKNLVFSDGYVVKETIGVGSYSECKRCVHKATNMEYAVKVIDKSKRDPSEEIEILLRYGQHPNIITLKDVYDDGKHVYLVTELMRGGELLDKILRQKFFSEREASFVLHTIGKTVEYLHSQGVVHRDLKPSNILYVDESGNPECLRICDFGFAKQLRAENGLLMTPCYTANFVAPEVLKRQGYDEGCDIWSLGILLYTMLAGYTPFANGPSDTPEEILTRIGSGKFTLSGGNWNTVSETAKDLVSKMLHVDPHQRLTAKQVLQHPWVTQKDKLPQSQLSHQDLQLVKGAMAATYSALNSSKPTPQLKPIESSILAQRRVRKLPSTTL
# UniProt Q15506: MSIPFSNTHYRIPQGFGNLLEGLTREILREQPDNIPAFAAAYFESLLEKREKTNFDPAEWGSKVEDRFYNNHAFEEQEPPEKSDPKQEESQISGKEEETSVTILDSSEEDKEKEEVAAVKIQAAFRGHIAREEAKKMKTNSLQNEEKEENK
# UniProt Q15907: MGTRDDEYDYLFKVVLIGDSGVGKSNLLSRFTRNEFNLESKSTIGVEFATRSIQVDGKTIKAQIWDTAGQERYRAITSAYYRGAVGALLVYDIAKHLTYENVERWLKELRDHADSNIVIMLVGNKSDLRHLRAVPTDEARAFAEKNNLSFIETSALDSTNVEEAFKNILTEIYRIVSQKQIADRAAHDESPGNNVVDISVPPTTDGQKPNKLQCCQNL
# This is one part of the list. Most values lie at the level of the controls, where differences are scatter.
# Compound: Cc1nc(Nc2ncc(C(=O)Nc3c(C)cccc3Cl)s2)cc(N2CCN(CCO)CC2)n1 [dasatinib]
# Test: log2 fold change of tryptic peptide abundance, ligand vs vehicle (limited proteolysis) (log2 ratio); higher = more trypsin-susceptible (destabilized)
# Settings: ligand concentration: 5 uM; sample: K562 cleared lysate
row,Target,log2 fold change
1,"MAD2L1BP (peptide sequence: VLILLGGNALSPK, peptide start residue: 150) (UniProt Q15013)",-0.258
2,"TRIP4 (peptide sequence: KILEEENSLAEYHSR, peptide start residue: 334) (UniProt Q15650)",0.228
3,"MORF4L2 (peptide sequence: QKTPGNGDGGSTSEAPQPPRK, peptide start residue: 80) (UniProt Q15014)",-0.712
4,"ACAP1 (peptide sequence: DFSLMASDDPEKLSR, peptide start residue: 718) (UniProt Q15027)",0.415
5,"UniProt Q15418 (peptide sequence: EAIDHEKK, peptide start residue: 211)",-0.285
6,"SPA17 (peptide sequence: TNSLQNEEKEENK, peptide start residue: 139) (UniProt Q15506)",-0.0744
7,"RAB11B (peptide sequence: NILTEIYR, peptide start residue: 167) (UniProt Q15907)",0.185
